Test results reported in PMC3405998.
These are yes or no findings as the source states them, for the method shown. In cells and extracts the contact can be indirect. Binding calls can cover weak binding; strength is not graded here. Sequences can lack the tags named with a protein. One block for each binder: values may come before it.

Columns and labels:
[1] = target: GST-Grr1ΔF (budding yeast); assay: pull-down; GST fusions pulled down on glutathione-sepharose 4B from lysates of grr1Δ yeast expressing Myc-tagged Cln1 or Cln2 proteins; galactose induction 8 hours; HEPES lysis buffer pH 7.6, 400 mM NaCl, 0.2% Triton X-100, 4°C, 2 hours, seven washes; Myc and GST Western blots
[2] = target: GST-Cdc4ΔF (budding yeast); assay: as above
[3] = target: GST-Grr1ΔF (budding yeast); assay: pull-down; GST fusions pulled down on glutathione-sepharose 4B from lysates of grr1Δ cdc4-1 yeast expressing Myc-tagged Cln3 proteins; galactose induction 20-22 hours; HEPES lysis buffer pH 7.6, 400 mM NaCl, 0.2% Triton X-100, 4°C, 2 hours, seven washes; Myc and GST Western blots
[4] = target: GST-Cdc4ΔF (budding yeast); assay: as above

binding [1]: binds
binding [2]: binds
B1: Cln2-13Myc (protein, UniProt P20438 1-545)
chain: MASAEPRPRMGLVINAKPDYYPIELSNAELLSHFEMLQEYHQEISTNVIAQSCKFKPNPKLIDQQPEMNPVETRSNIITFLFELSVVTRVTNGIFFHSVRLYDRYCSKRIVLRDQAKLVVATCLWLAAKTWGGCNHIINNVVIPTGGRFYGPNPRARIPRLSELVHYCGDGQVFDESMFLQMERHILDTLNWNIYEPMINDYVLNVDENCLMQYELYENQVTYDKQCSEKRQSQLSQDSDATVDERPYQNEEEEEEDLKLKIKLINLKKFLIDVSAWQYDLLRYELFEVSHGIFSIINQFTNQDHGPFLMTPMTSESKNGEILSTLMNGIVSIPNSLMEVYKTVNGVLPFINQVKEYHLDLQRKLQIASNLNISRKLTISTPSCSFENSNSTSIPSPASSSQSHTPMRNMSSLSDNSVFSRNMEQSSPITPSMYQFGQQQSNSICGSTVSVNSLVNTNNKQRIYEQITGPNSNNATNDYIDLLNLNESNKENQNPATAHYLNGGPPKTSFINHGMFPSPTGTINSGKSSSASSLISFGMGNTQVI

binding [3]: binds
B2: Cln3Δ22-13Myc (domain or fragment, UniProt P13365 1-558)
chain: MAILKDTIIRYANARYATASGTSTATAASVSAASCPNLPLLLQKRRAIASAKSKNPNLVKRELQAHHSAISEYNNDQLDHYFRLSHTERPLYNLTNFNSQPQVNPKMRFLIFDFIMYCHTRLNLSTSTLFLTFTILDKYSSRFIIKSYNYQLLSLTALWISSKFWDSKNRMATLKVLQNLCCNQYSIKQFTTMEMHLFKSLDWSICQSATFDSYIDIFLFQSTSPLSPGVVLSAPLEAFIQQKLALLNNAAGTAINKSSSSQGPSLNINEIKLGAIMLCELASFNLELSFKYDRSLIALGAINLIKLSLNYYNSNLWENINLALEENCQDLDIKLSEISNTLLDIAMDQNSFPSSFKSKYLNSNKTSLAKSLLDALQNYCIQLKLEEFYRSQELETMYNTIFAQSFDSDSLTCVYSNATTPKSATVSSAATDYFSDHTHLRRLTKDSISPPFAFTPTSSSSSPSPFNSPYKTSSSMTTPDSASHHSHSGSFSSTQNSFKRSLSIPQNSSIFWPSPLTPTTPSLMSNRKLLQNLSVRSKRLFPVRPMATAHPCSAPTQL

binding [1]: binds
binding [2]: binds
B3: Cln1-13Myc (protein, UniProt P20437 1-546)
chain: MNHSEVKTGLIVTAKQTYYPIELSNAELLTHYETIQEYHEEISQNVLVQSSKTKPDIKLIDQQPEMNPHQTREAIVTFLYQLSVMTRVSNGIFFHAVRFYDRYCSKRVVLKDQAKLVVGTCLWLAAKTWGGCNHIINNVSIPTGGRFYGPNPRARIPRLSELVHYCGGSDLFDESMFIQMERHILDTLNWDVYEPMINDYILNVDENCLIQYELYKNQLQNNNSNGKEWSCKRKSQSSDDSDATVEEHISSSPQSTGLDGDTTTMDEDEELNSKIKLINLKRFLIDLSCWQYNLLKFELYEICNGMFSIINKFTNQDQGPFLSMPIGNDINSNTQTQVFSIIINGIVNSPPSLVEVYKEQYGIVPFILQVKDYNLELQKKLQLASTIDLTRKIAVNSRYFDQNASSSSVSSPSTYSSGTNYTPMRNFSAQSDNSVFSTTNIDHSSPITPHMYTFNQFKNESACDSAISVSSLPNQTQNGNMPLSSNYQNMMLEERNKENRIPNSSSAEIPQRAKFMTTGIFQNTGELTNRASSISLSLRNHNSSQL

binding [3]: binds
binding [4]: binds
B4: Cln3-13Myc (protein, UniProt P13365 1-580)
chain: MAILKDTIIRYANARYATASGTSTATAASVSAASCPNLPLLLQKRRAIASAKSKNPNLVKRELQAHHSAISEYNNDQLDHYFRLSHTERPLYNLTNFNSQPQVNPKMRFLIFDFIMYCHTRLNLSTSTLFLTFTILDKYSSRFIIKSYNYQLLSLTALWISSKFWDSKNRMATLKVLQNLCCNQYSIKQFTTMEMHLFKSLDWSICQSATFDSYIDIFLFQSTSPLSPGVVLSAPLEAFIQQKLALLNNAAGTAINKSSSSQGPSLNINEIKLGAIMLCELASFNLELSFKYDRSLIALGAINLIKLSLNYYNSNLWENINLALEENCQDLDIKLSEISNTLLDIAMDQNSFPSSFKSKYLNSNKTSLAKSLLDALQNYCIQLKLEEFYRSQELETMYNTIFAQSFDSDSLTCVYSNATTPKSATVSSAATDYFSDHTHLRRLTKDSISPPFAFTPTSSSSSPSPFNSPYKTSSSMTTPDSASHHSHSGSFSSTQNSFKRSLSIPQNSSIFWPSPLTPTTPSLMSNRKLLQNLSVRSKRLFPVRPMATAHPCSAPTQLKKRSTSSVDCDFNDSSNLKKTR
